This passage reports binding results from article PMC13371181, “A paracrine-to-autocrine shunt of GREM1 fuels colorectal cancer metastasis via ACVR1C” (Molecular Cancer, 2026).

Experiment [1] deals with T1, Flag-GFP-tagged ACVR1C (human) (UniProt Q8NER5).
T1 sequence: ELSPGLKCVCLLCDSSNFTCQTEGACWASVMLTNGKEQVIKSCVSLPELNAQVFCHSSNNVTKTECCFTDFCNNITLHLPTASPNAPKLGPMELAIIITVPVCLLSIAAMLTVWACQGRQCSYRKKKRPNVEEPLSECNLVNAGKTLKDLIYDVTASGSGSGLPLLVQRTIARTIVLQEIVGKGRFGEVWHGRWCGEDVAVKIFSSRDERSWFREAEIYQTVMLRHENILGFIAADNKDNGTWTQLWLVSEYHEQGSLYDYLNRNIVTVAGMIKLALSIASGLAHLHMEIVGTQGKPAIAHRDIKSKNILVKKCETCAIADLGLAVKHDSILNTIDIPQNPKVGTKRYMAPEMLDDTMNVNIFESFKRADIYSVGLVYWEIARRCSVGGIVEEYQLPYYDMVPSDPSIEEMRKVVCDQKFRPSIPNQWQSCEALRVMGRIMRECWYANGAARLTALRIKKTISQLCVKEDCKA
Description: co-IP; HCT116 cells transfected with truncation or point mutants of GREM1 or ACVR1C and the binding partner; NP40 lysis buffer.

Experiment [2] has as its target truncated ACVR1C-ECD with deletion of amino acids 68–113 (human). The experiment is described as above.

No constants are given. Whether binding was seen depends on the method and setting. In cells and extracts the contact can be indirect. Tags and fused reporters may be left off the sequences shown.

For “truncated GREM1 with deletion of amino acids 100–157 (human) (domain or fragment)”, in experiment [1], the binding entry is reported as “no binding”.

B1: HA-mCherry-tagged GREM1 (Gremlin 1) (ligand, UniProt O60565-1 25-184)
chain: KKKGSQGAIPPPDKAQHNDSEQTQSPQQPGSRNRGRGQGRGTAMPGEEVLESSQEALHVTERKYLKRDWCKTQPLKQTIHEEGCNSRTIINRFCYGQCNSFYIPRHIRKEEGSFQSCSFCKPKKFTTMMVTLNCPELQPPTKKKRVTRVKQCRCISIDLD
As to B1, in experiment [2], the binding result is recorded as “no binding”.
